According to the supplement of paper PMC10849652:
Some of the results follow.

Sequences of proteins named here, by UniProt entry; tags and fusion partners are left off. A change or cut given only in a name is not applied to a line headed by its entry.
UniProt Q7LGA3: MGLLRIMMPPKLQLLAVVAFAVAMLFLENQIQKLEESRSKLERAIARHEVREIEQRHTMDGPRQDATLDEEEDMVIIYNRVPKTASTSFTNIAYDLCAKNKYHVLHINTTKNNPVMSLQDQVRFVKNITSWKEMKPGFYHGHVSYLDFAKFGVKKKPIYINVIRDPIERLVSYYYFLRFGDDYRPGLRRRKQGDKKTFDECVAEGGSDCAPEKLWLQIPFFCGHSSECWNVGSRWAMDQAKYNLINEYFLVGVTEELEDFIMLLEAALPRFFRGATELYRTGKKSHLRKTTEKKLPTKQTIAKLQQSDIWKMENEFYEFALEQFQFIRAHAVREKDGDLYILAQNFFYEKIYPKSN
UniProt P31937: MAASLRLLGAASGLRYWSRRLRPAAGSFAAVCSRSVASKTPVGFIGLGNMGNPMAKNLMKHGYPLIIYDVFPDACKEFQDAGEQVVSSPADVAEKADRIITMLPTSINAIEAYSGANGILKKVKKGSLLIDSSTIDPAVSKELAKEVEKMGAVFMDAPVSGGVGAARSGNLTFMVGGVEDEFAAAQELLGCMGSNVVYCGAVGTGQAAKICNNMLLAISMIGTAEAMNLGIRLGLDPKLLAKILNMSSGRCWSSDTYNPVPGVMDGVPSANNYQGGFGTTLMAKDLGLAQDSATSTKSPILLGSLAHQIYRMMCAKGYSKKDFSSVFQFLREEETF
UniProt Q9Y4L1: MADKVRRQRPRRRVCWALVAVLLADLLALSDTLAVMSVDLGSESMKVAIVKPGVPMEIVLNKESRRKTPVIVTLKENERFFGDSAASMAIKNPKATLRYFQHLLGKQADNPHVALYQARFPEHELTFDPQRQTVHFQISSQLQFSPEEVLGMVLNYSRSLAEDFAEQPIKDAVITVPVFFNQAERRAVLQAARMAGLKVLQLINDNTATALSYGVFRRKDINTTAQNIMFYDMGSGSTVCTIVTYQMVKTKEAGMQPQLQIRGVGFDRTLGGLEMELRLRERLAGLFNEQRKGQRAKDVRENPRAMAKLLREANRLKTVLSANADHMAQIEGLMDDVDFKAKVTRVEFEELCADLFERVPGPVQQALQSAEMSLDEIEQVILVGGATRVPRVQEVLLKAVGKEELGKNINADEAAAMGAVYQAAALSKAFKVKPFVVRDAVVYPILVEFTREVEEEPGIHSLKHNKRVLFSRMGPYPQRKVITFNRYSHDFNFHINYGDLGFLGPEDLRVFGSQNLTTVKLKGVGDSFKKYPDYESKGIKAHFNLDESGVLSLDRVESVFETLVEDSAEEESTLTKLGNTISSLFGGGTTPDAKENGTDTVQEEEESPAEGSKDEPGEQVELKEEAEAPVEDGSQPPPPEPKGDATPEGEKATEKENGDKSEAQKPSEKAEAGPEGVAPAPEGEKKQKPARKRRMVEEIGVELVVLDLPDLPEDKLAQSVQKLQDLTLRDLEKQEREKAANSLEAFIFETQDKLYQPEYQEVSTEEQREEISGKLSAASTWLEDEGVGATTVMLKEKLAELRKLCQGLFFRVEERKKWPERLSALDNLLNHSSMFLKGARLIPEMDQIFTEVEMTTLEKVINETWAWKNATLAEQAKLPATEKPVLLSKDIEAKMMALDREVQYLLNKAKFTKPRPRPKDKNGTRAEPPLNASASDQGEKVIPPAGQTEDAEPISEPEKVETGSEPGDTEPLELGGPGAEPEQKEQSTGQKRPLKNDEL
UniProt Q99729: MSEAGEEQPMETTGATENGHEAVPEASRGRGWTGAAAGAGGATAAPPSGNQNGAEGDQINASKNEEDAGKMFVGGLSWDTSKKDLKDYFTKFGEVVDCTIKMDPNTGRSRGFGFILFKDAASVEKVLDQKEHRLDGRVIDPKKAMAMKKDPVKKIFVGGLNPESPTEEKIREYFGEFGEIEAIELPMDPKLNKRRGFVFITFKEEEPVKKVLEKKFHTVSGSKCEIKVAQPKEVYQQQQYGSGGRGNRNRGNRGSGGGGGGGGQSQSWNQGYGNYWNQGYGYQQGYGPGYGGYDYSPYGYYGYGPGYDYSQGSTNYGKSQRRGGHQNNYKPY
UniProt P61604, whole entry, looked up: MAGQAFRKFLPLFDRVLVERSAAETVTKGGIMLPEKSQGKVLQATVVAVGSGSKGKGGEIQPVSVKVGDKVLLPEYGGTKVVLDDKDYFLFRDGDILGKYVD
UniProt P31942: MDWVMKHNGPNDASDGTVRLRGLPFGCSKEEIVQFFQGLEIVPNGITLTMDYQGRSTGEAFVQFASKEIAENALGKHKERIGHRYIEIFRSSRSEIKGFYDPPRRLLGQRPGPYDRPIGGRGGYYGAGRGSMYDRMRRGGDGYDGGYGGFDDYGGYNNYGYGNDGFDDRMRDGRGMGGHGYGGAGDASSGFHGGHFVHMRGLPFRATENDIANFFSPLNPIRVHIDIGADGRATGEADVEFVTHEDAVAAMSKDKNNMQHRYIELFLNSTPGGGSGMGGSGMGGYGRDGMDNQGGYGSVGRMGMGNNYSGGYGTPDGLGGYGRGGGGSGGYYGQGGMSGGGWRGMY
UniProt P10809, whole entry, looked up: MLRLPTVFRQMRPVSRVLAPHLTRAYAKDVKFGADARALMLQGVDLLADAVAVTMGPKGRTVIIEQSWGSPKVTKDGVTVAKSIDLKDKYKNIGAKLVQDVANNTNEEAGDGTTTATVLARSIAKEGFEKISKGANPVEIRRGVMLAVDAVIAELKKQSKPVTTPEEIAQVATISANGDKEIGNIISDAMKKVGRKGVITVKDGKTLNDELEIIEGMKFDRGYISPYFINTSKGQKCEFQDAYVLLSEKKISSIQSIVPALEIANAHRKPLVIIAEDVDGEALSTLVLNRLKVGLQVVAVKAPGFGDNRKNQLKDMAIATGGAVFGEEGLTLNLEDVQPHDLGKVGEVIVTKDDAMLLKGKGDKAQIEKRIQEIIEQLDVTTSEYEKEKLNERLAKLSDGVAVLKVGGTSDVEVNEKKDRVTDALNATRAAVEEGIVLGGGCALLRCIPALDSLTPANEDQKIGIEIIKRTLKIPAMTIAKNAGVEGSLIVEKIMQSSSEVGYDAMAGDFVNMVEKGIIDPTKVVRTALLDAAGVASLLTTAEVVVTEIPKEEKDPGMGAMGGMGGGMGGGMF
UniProt Q9NX55: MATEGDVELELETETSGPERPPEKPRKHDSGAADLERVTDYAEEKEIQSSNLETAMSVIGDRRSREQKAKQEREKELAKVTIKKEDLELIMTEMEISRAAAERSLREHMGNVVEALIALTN
UniProt Q15651: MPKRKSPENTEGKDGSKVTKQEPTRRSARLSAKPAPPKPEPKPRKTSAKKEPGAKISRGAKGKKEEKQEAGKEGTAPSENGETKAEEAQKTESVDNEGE
UniProt P14735, whole entry, looked up: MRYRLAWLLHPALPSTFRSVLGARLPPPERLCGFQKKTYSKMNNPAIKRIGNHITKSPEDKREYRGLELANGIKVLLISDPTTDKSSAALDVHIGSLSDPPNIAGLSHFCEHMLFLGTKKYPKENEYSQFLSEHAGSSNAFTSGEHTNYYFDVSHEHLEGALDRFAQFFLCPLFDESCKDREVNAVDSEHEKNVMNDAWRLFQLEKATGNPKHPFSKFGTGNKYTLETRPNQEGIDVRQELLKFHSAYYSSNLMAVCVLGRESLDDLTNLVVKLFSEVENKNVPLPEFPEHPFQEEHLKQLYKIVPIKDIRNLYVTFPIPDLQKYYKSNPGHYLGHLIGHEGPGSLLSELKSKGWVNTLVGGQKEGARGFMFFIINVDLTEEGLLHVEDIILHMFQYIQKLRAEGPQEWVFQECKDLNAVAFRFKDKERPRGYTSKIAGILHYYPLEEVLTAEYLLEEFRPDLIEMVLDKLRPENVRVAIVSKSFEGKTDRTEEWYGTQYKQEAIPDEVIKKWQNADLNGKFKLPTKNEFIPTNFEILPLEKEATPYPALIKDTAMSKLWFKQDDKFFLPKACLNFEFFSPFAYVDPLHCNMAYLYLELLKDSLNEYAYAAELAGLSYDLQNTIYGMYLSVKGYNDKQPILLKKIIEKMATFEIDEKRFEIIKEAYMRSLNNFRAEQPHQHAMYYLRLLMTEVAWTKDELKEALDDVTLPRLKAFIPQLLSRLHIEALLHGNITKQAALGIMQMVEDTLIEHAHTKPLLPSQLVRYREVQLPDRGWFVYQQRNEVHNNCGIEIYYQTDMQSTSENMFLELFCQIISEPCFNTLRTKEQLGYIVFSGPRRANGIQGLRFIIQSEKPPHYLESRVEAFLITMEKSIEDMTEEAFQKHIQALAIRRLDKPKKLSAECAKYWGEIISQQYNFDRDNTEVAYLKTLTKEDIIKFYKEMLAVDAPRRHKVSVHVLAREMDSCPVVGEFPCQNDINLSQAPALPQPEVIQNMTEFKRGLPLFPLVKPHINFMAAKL
UniProt Q00613: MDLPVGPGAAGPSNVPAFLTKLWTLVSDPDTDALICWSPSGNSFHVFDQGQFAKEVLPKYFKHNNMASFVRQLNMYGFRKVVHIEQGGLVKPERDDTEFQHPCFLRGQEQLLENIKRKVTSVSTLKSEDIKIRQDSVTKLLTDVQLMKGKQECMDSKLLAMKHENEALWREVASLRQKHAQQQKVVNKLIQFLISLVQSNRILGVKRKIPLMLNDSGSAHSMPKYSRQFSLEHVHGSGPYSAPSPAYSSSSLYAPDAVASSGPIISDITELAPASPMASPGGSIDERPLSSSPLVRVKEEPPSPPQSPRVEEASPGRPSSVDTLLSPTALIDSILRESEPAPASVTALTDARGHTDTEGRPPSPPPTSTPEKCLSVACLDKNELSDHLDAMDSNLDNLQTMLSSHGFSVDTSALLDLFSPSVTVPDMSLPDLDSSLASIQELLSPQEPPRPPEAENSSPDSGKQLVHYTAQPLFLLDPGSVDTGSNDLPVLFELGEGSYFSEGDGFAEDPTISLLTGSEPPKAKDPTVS
UniProt Q0VDF9: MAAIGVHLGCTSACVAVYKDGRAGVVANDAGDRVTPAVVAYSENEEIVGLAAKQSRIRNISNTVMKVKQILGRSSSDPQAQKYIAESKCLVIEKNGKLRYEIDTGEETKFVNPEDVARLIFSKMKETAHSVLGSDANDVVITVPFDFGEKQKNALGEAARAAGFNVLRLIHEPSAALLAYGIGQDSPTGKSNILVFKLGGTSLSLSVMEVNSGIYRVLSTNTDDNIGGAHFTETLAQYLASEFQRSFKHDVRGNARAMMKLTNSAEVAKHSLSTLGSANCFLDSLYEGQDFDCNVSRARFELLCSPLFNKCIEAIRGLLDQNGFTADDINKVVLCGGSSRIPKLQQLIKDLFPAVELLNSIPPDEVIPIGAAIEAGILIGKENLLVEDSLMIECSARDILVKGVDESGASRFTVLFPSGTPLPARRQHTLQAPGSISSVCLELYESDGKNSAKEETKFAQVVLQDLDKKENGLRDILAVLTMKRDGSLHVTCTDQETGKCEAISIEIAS
UniProt P13598: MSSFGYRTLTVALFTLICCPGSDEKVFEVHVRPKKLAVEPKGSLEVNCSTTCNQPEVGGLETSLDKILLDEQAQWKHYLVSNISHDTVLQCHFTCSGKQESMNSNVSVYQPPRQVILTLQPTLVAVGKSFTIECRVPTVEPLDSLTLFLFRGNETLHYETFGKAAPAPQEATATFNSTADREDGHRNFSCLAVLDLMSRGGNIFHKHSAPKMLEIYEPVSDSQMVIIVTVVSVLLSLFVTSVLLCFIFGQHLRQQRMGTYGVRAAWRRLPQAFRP
UniProt Q00839, whole entry, looked up: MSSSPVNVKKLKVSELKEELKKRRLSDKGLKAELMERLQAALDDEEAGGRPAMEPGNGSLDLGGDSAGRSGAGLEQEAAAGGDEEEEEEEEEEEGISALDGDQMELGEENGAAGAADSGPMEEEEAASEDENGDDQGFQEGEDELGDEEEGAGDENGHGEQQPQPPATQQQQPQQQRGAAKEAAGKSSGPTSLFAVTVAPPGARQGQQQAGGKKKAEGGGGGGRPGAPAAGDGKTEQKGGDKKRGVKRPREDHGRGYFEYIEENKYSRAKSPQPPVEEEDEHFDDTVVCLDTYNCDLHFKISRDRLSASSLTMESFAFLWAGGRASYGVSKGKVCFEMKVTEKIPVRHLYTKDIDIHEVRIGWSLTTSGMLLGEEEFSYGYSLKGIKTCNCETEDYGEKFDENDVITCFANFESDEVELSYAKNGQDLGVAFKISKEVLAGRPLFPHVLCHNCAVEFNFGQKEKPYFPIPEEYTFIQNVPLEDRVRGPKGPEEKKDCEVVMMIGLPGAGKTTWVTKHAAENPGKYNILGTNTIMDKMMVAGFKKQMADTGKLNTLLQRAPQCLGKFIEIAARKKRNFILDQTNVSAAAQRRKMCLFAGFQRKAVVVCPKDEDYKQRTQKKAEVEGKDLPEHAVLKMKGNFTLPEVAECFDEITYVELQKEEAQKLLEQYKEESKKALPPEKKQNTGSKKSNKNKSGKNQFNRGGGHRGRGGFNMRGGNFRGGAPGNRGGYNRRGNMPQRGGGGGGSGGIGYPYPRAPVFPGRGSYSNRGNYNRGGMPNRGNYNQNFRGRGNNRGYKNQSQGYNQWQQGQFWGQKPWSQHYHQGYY

What was measured:
Experiment in all cases: log2 fold change, soluble protein after heating vs DMSO (PISA); higher = thermal stabilisation; K562 cells, 10 uM, 30 min; active = over 0.2 and 3.5 SD of the protein, either way, in both replicates (recomputed)
saracatinib = compound: CN1CCN(CCOc2cc(OC3CCOCC3)c3c(Nc4c(Cl)ccc5c4OCO5)ncnc3c2)CC1 [saracatinib]
How it was run: (§1)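 Aliquots of K562 cells (2×10^6 cells/mL) treated with 10 μM compound for 30 min were heated for 3 min over 48°C-58°C. After pooling and extraction in PBS with 0.5% NP-40 at 4°C, soluble protein from a 21,000xg, 90 min spin was quantified by TMTpro 16plex LC-MS/MS with channel sums equalised. Thermal stability is expressed against control samples, from duplicates, as a log2 fold change.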

sotrastaurin = compound: CN1CCN(c2nc(C3=C(c4c[nH]c5ccccc45)C(=O)NC3=O)c3ccccc3n2)CC1 [sotrastaurin]
How it was run: as §1

alvocidib = compound: CN1CC[C@H](c2c(O)cc(O)c3c(=O)cc(-c4ccccc4Cl)oc23)[C@H](O)C1 [alvocidib]
How it was run: as §1

Tubastatin A = compound: CN1CCc2c(c3ccccc3n2Cc2ccc(C(=O)NO)cc2)C1 [Tubastatin A]
How it was run: as §1

[1] = compound: CNC(=O)C1=CC=CC=C1NC2=NC(=NC=C2Cl)NC3=C(C=C(C=C3)N4CCOCC4)OC
How it was run: as §1

defactinib = compound: CNC(=O)c1ccc(Nc2ncc(C(F)(F)F)c(NCc3nccnc3N(C)S(C)(=O)=O)n2)cc1 [defactinib]
How it was run: as §1

rucaparib = compound: CNCc1ccc(-c2[nH]c3cc(F)cc4c3c2CCNC4=O)cc1 [rucaparib]
How it was run: as §1

[2] = compound: CNc1nc(-c2ccc3c(N)n[nH]c3c2)cc(N2C[C@@H](C(=O)NC3CCCCC3)CC[C@H]2C)n1
How it was run: as §1

encorafenib = compound: COC(=O)N[C@@H](C)CNc1nccc(-c2cn(C(C)C)nc2-c2cc(Cl)cc(NS(C)(=O)=O)c2F)n1 [encorafenib]
How it was run: as §1

[3] = compound: COC(=O)[C@H](CCSC)NC(=O)C1=C(C=C(C=C1)NC[C@H](CS)N)C2=CC=CC=C2
How it was run: as §1

Measured: log2 fold change

HSP90B1 (UniProt P14625)
inactive: saracatinib -0.014 | sotrastaurin 0.016 | alvocidib 0.004 | Tubastatin A -0.011 | [1] -0.037 | defactinib -0.005 | rucaparib -0.041 | [2] 0.003 | encorafenib 0.012 | [3] 0.01

HS2ST1 (UniProt Q7LGA3)
inactive: saracatinib 0.016 | sotrastaurin 0.024 | alvocidib 0.067 | Tubastatin A -0.021 | [1] -0.037 | defactinib 0.104 | rucaparib 0.127 | [2] -0.092 | encorafenib 0.011 | [3] 0.021

HIBADH (UniProt P31937)
inactive: saracatinib 0.036 | sotrastaurin 0.055 | alvocidib -0.043 | Tubastatin A 0.005 | [1] 0.018 | defactinib 0.018 | rucaparib 0.003 | [2] -0.016 | encorafenib -0.025 | [3] 0.028

HYOU1 (UniProt Q9Y4L1)
inactive: saracatinib -0.072 | sotrastaurin -0.06 | alvocidib 0.011 | Tubastatin A 0.022 | [1] 0.09 | defactinib 0.044 | rucaparib 0.005 | [2] -0.001 | encorafenib 0.048 | [3] 0.008

HSPA13 (UniProt P48723)
inactive: saracatinib 0.014 | sotrastaurin -0.015 | alvocidib 0.03 | Tubastatin A 0.036 | [1] -0.048 | defactinib 0.001 | rucaparib -0.019 | [2] 0.018 | encorafenib 0.084 | [3] -0.085

HUWE1 (UniProt Q7Z6Z7)
inactive: saracatinib 0.01 | sotrastaurin -0.04 | alvocidib -0.044 | Tubastatin A 0.012 | [1] 0.025 | defactinib -0.032 | rucaparib -0.006 | [2] -0.003 | encorafenib 0.021 | [3] -0.001

HSP90AA1 isoform 2 (UniProt P07900)
inactive: saracatinib 0.008 | sotrastaurin 0.001 | alvocidib -0.064 | Tubastatin A -0.003 | [1] 0.003 | defactinib -0.031 | rucaparib -0.055 | [2] -0.005 | encorafenib 0.024 | [3] 0.001

HLCS (UniProt P50747)
inactive: saracatinib 0.039 | sotrastaurin -0.033 | alvocidib -0.068 | Tubastatin A 0.048 | [1] -0.004 | defactinib -0.019 | rucaparib 0.119 | [2] 0.027 | encorafenib 0.028 | [3] 0.012

HNRNPAB isoform 3 (UniProt Q99729)
inactive: saracatinib 0.066 | sotrastaurin 0.069 | alvocidib 0.254 | Tubastatin A 0.015 | [1] 0.041 | defactinib 0.315 | rucaparib 0.224 | [2] -0.023 | encorafenib 0.024 | [3] 0.024

HSDL2 (UniProt Q6YN16)
inactive: saracatinib -0.035 | sotrastaurin -0.062 | alvocidib -0.125 | Tubastatin A 0.017 | [1] 0.027 | defactinib -0.086 | rucaparib -0.007 | [2] 0.062 | encorafenib 0.001 | [3] -0.074

HSPE1 (UniProt P61604)
inactive: saracatinib 0.008 | sotrastaurin 0.019 | alvocidib 0.01 | Tubastatin A -0.042 | [1] 0.023 | defactinib 0.035 | rucaparib -0.028 | [2] -0.022 | encorafenib -0.033 | [3] 0.028

HNRNPH3 (UniProt P31942)
inactive: saracatinib 0.041 | sotrastaurin -0.015 | alvocidib 0.214 | Tubastatin A 0.157 | [1] -0.04 | defactinib 0.046 | rucaparib 0.367 | [2] 0.015 | encorafenib 0.072 | [3] -0.012

HSPD1 (UniProt P10809)
inactive: saracatinib 0.005 | sotrastaurin 0.038 | alvocidib 0.008 | Tubastatin A -0.025 | [1] -0.007 | defactinib 0.009 | rucaparib -0.01 | [2] -0.053 | encorafenib -0.023 | [3] 0.03

HYPK (UniProt Q9NX55)
inactive: saracatinib -0.028 | sotrastaurin 0.033 | alvocidib -0.08 | Tubastatin A 0.02 | [1] 0.048 | defactinib -0.001 | rucaparib -0.072 | [2] -0.004 | encorafenib -0.031 | [3] -0.019

HMGB2 (UniProt P26583)
inactive: saracatinib -0.004 | sotrastaurin 0.03 | alvocidib -0.007 | Tubastatin A -0.003 | [1] 0.02 | defactinib -0.009 | rucaparib 0.049 | [2] 0 | encorafenib -0.057 | [3] 0.024

HMGN3 (UniProt Q15651)
inactive: saracatinib -0.178 | sotrastaurin 0.029 | alvocidib 0.081 | Tubastatin A 0.009 | [1] -0.05 | defactinib 0.017 | rucaparib 0.083 | [2] -0.072 | encorafenib -0.042 | [3] 0.08

HNRNPD (UniProt Q14103)
inactive: saracatinib -0.032 | sotrastaurin 0.108 | alvocidib 0.209 | Tubastatin A 0.012 | [1] 0.015 | defactinib 0.243 | rucaparib 0.163 | [2] -0.023 | encorafenib 0.017 | [3] 0.036

IDE (UniProt P14735)
inactive: saracatinib -0.08 | sotrastaurin -0.001 | alvocidib -0.109 | Tubastatin A 0.023 | [1] -0.031 | defactinib -0.028 | rucaparib 0.029 | [2] 0.023 | encorafenib 0.009 | [3] -0.031

HSF1 (UniProt Q00613)
inactive: saracatinib -0.022 | sotrastaurin -0.335 | alvocidib -0.144 | Tubastatin A 0.184 | [1] -0.008 | defactinib -0.222 | rucaparib -0.086 | [2] -0.019 | encorafenib 0.105 | [3] -0.002

HSPA14 (UniProt Q0VDF9)
inactive: saracatinib -0.045 | sotrastaurin -0.131 | alvocidib -0.022 | Tubastatin A 0.011 | [1] -0.05 | defactinib -0.016 | rucaparib 0.14 | [2] 0.014 | encorafenib 0.102 | [3] -0.058

HMBS (UniProt P08397)
inactive: saracatinib 0.031 | sotrastaurin 0.027 | alvocidib 0.008 | Tubastatin A -0.008 | [1] -0.035 | defactinib -0.004 | rucaparib -0.035 | [2] -0.013 | encorafenib -0.016 | [3] 0.019

HGS (UniProt O14964)
inactive: saracatinib 0.042 | sotrastaurin -0.056 | alvocidib -0.069 | Tubastatin A 0.004 | [1] 0.019 | defactinib -0.016 | rucaparib -0.027 | [2] -0.054 | encorafenib 0.011 | [3] -0.007

ICAM2 (UniProt P13598)
inactive: saracatinib 0.076 | sotrastaurin 0.01 | alvocidib -0.085 | Tubastatin A 0.053 | [1] -0.015 | defactinib -0.04 | rucaparib 0.007 | [2] 0.016 | encorafenib -0.045 | [3] -0.023

HIRIP3 (UniProt Q9BW71)
inactive: saracatinib 0.046 | sotrastaurin 0.015 | alvocidib -0.05 | Tubastatin A 0.052 | [1] -0.059 | defactinib -0.107 | rucaparib -0.091 | [2] -0.021 | encorafenib 0.012 | [3] -0.027

HOXB9 (UniProt P17482)
inactive: saracatinib -0.022 | sotrastaurin -0.071 | alvocidib -0.027 | Tubastatin A 0.148 | [1] 0.064 | defactinib -0.066 | rucaparib -0.116 | [2] 0.114 | encorafenib 0.129 | [3] 0.02

HMGCLL1 (UniProt Q8TB92)
inactive: saracatinib -0.019 | sotrastaurin 0.015 | alvocidib 0.002 | Tubastatin A -0.053 | [1] 0.038 | defactinib -0.045 | rucaparib -0.061 | [2] -0.002 | encorafenib -0.027 | [3] 0.021

Reprinted at random: 2 entries already listed
HMGCLL1 (UniProt Q8TB92)
inactive: saracatinib -0.019 | sotrastaurin 0.015 | alvocidib 0.002 | Tubastatin A -0.053 | [1] 0.038 | defactinib -0.045 | rucaparib -0.061 | [2] -0.002 | encorafenib -0.027 | [3] 0.021

HSF1 (UniProt Q00613)
inactive: saracatinib -0.022 | sotrastaurin -0.335 | alvocidib -0.144 | Tubastatin A 0.184 | [1] -0.008 | defactinib -0.222 | rucaparib -0.086 | [2] -0.019 | encorafenib 0.105 | [3] -0.002

(further entries)

HINT3 (UniProt Q9NQE9)
inactive: saracatinib -0.009 | sotrastaurin -0.005 | alvocidib -0.024 | Tubastatin A 0.018 | [1] -0.037 | defactinib -0.039 | rucaparib 0.029 | [2] 0.007 | encorafenib -0.037 | [3] 0.037

HSPH1 (UniProt Q92598)
inactive: saracatinib 0 | sotrastaurin -0.024 | alvocidib -0.019 | Tubastatin A -0.003 | [1] 0.062 | defactinib -0.037 | rucaparib 0.036 | [2] -0.018 | encorafenib 0.034 | [3] 0.004

HNRNPA3 (UniProt P51991)
inactive: saracatinib 0.095 | sotrastaurin -0.028 | alvocidib 0.288 | Tubastatin A 0.023 | [1] 0.104 | defactinib 0.48 | rucaparib 0.361 | [2] 0.062 | encorafenib 0.095 | [3] -0.011

HNRNPU (UniProt Q00839)
inactive: saracatinib -0.158 | sotrastaurin -0.038 | alvocidib 0.055 | Tubastatin A 0.21 | [1] -0.097 | defactinib 0.247 | rucaparib 0.156 | [2] 0.078 | encorafenib 0.106 | [3] -0.069
